Measured values: PubChem BioAssay AID2662 (National Center for Advancing Translational Sciences (NCATS), 2010)
The whole screen tested about 290,000 compounds, of which about 110 (0.038%) were called active. This list was built around the results that the source calls inconclusive (neither active nor inactive); the mix of calls is not that of the screen. The call rests on the fitted dose curve; in most records, active means well fitted inhibition curve with a large enough effect in the polarisation, with a control signal flat (not every such curve was filed as active); inconclusive means small, poorly fitted or top-dose-only effect, or effect the other way, or a change in a side signal; inactive means no such curve, though single readings can be large or run the other way; the % refers to the polarisation. A potency beside an inconclusive call is a rough fit, not a confirmed value. “Side channel” marks fits to a control or component signal instead of the main read-out.

The chains behind the UniProt entries cited, without tags or fusion partners.
UniProt Q03164, whole entry, looked up: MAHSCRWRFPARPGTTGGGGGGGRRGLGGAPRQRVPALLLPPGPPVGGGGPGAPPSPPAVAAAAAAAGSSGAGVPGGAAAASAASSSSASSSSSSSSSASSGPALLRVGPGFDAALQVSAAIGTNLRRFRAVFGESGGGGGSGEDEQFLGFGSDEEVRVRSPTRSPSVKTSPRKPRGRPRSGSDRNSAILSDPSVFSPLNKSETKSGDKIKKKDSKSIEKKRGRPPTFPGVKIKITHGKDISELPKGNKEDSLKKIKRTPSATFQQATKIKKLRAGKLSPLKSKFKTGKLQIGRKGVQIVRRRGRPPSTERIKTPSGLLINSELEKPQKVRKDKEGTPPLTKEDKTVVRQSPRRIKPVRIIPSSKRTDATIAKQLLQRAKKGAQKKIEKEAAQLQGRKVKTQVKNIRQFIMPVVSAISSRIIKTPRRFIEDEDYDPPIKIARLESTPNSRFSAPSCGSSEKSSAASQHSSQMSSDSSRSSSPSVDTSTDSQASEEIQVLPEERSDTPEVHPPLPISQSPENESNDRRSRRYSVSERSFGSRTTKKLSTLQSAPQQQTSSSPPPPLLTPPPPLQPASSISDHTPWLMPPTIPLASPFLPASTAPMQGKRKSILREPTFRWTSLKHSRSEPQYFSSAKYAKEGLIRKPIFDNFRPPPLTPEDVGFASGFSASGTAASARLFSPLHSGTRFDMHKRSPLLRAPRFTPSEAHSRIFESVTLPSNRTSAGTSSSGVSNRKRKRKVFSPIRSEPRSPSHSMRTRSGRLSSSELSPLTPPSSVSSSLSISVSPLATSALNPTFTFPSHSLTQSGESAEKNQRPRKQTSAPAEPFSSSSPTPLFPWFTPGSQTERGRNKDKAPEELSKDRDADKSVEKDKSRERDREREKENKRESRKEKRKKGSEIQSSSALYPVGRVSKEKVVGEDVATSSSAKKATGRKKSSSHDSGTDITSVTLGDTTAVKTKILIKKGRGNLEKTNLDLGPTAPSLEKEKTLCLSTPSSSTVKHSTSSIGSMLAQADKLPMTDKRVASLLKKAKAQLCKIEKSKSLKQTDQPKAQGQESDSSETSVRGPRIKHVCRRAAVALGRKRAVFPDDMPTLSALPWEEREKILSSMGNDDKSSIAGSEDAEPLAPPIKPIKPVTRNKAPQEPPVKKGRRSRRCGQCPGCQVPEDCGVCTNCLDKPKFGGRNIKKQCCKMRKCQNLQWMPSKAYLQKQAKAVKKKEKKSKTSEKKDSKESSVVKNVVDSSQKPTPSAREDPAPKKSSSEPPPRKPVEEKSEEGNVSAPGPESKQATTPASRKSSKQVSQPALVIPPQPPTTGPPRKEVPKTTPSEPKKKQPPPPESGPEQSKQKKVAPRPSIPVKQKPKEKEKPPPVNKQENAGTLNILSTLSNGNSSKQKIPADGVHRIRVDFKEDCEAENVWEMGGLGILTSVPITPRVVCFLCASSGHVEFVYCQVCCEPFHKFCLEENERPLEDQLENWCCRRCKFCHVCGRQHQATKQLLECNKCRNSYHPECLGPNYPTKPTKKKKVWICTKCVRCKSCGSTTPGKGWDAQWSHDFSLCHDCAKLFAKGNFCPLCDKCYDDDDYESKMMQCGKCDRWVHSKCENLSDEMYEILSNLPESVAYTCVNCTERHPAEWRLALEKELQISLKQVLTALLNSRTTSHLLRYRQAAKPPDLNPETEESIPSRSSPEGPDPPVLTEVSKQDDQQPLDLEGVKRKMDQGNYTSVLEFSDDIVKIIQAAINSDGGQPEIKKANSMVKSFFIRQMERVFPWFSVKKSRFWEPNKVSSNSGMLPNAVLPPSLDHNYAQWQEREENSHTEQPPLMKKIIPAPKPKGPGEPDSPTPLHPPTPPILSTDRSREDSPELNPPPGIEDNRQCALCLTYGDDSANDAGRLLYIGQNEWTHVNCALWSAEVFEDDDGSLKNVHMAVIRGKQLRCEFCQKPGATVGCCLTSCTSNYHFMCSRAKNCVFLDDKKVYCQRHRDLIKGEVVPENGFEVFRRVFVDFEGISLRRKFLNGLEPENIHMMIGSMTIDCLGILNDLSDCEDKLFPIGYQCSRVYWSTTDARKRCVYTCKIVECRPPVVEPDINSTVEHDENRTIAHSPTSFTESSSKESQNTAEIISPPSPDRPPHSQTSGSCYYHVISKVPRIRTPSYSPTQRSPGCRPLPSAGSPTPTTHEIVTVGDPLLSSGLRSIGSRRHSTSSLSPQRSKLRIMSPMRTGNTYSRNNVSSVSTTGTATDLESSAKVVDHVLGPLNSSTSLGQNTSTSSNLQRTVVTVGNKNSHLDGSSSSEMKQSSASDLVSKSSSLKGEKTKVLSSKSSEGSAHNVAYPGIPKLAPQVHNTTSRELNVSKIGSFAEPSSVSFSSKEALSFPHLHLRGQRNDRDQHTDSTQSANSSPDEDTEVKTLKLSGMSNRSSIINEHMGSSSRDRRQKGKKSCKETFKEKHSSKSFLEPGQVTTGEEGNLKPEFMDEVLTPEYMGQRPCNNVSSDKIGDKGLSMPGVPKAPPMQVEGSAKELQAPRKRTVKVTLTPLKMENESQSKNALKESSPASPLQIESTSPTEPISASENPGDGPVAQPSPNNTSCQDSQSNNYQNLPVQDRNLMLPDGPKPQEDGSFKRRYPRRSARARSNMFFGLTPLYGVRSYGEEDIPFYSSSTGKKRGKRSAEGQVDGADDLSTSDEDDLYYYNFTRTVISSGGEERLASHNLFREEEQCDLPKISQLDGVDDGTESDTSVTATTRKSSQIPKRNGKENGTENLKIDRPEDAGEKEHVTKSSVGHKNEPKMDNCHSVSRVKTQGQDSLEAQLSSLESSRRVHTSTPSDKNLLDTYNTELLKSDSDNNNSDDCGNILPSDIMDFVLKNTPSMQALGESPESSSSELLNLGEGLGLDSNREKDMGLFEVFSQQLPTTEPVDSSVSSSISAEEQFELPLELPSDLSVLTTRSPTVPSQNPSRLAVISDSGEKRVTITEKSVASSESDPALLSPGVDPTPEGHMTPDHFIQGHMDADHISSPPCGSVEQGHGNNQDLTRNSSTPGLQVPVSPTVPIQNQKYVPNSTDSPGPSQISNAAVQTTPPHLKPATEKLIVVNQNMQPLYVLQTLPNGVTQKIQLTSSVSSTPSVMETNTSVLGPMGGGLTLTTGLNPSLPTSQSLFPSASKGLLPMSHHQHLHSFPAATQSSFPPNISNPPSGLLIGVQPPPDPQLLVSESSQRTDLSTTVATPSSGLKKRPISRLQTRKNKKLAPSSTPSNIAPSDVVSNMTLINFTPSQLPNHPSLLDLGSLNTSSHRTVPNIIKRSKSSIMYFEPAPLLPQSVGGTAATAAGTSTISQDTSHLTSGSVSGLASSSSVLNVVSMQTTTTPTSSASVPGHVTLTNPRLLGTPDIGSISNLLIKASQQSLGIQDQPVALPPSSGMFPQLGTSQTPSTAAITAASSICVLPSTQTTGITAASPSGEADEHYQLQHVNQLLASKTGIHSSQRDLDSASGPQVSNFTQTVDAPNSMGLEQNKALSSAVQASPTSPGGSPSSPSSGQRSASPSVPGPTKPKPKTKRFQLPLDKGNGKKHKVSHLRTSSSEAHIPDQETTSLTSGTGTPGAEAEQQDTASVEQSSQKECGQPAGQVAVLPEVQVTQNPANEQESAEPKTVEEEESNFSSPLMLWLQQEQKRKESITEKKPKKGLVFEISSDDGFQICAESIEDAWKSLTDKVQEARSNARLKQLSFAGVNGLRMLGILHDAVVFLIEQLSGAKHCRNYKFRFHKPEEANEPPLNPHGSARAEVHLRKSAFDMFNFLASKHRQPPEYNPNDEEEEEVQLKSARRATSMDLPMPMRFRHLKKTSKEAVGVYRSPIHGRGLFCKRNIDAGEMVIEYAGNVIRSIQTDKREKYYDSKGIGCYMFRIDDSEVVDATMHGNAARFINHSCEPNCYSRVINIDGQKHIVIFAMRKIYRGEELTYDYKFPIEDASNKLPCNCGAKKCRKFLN

What follows are compounds tested against Histone-lysine N-methyltransferase 2A (Homo sapiens) (UniProt Q03164) (assay: qHTS Fluorescence Polarization Assay for Inhibitors of MLL CXXC domain - DNA interaction). Details: MLL-CXXC / FITC-HOXA9 DNA fluorescence polarization; activity change, negative = inhibition: at 115 µM (top of the series).
Method in brief: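 Fluorescence polarization: 7 uM MLL-CXXC (stock) preincubated 5 min with compounds, then 50 nM fluorescein-HOX-A9 DNA (stock) added; 30 min ambient. Buffer 50 mM Tris-HCl pH 7.5, 50 mM NaCl, 1 mM DTT, 0.05% BSA.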
Potency means the concentration at half of the fitted maximal effect.

| Compound | Potency | activity change, negative = inhibition |
| --- | --- | --- |
| Cc1ccc(N2NC(=O)/C(=C/c3ccc(-c4ccc(Cl)c(C(=O)O)c4)o3)C2=O)cc1C | inconclusive: 63.1 µM [inhibitor, single point] |  |
| Cc1ccc2occ(/C=N/NC(N)=S)c(=O)c2c1 |  | inactive: 3.75% |
| COC(=O)C1=NN[C@H](C(=O)OC(C)(C)C)[C@H]1c1ccccc1 |  | inactive: 0.04% |
| CCN(CC)c1ccc(/C=C(\C#N)C(N)=S)cc1 | inconclusive: 22.4 µM [fluorescent, side channel, partial curve] |  |
| Fc1ccccc1-c1nc(NCCCN2CCOCC2)c2ccccc2n1 |  | inactive: -7.23% |
| CC(=O)Oc1ccc2c(c1)O/C(=C\c1ccncc1)C2=O | inconclusive: 50.1 µM [fluorescent, side channel, single point] |  |
| COC(=O)C1CCCCN1C(=O)c1ccc2oc(C(C)C)nc2c1 (stereo unspecified) | inconclusive: 10 µM [fluorescent, side channel, single point] |  |
| CC1(c2cccc(Br)c2)NC(=O)N(CC(=O)Nc2cccnc2Cl)C1=O (stereo unspecified) | inconclusive: 14.1 µM [fluorescent, side channel, single point] |  |
| O=c1c(/C=N/Nc2ccccc2)c(Sc2nnnn2-c2ccccc2)nc2ccccn12 | inconclusive: 10 µM [fluorescent, side channel, partial curve] |  |
| COc1cc2cc(CN(CCO)S(=O)(=O)c3ccccc3Cl)c(=O)[nH]c2cc1OC |  | inactive: -0.128% |
| CC(=O)c1ccc(NC(=O)c2cc(C)no2)cc1 | inconclusive: 11.2 µM [quencher, side channel, single point] |  |
| CC(Sc1nc(C2CC2)n(-c2ccccc2)n1)C(=O)c1c(N)n(C)c(=O)n(C)c1=O (stereo unspecified) | inconclusive: 8.91 µM [fluorescent, side channel, single point] |  |
| COc1ccc(CC(=O)NNc2ncnc3c2cnn3-c2ccccc2)cc1 | inconclusive: 22.4 µM [fluorescent, side channel, partial curve, poor fit] |  |
| Cc1cc(C)c(C#N)c(N2CCN(S(=O)(=O)Cc3ccccc3)CC2)n1 | inconclusive: 14.1 µM [fluorescent, side channel, single point] |  |
| CCS(=O)(=O)Nc1cccc(-c2ccc3nnc(-c4cccnc4)n3n2)c1 | inconclusive: 56.2 µM [quencher, side channel, single point] |  |
| CCS(=O)(=O)N1Cc2ccccc2CC1C(=O)Nc1cccc(S(=O)(=O)N(C)C)c1 (stereo unspecified) | inconclusive: 31.6 µM [fluorescent, side channel, single point] |  |
| N#CC(C(=O)NCc1ccccc1)c1nc2ccccc2nc1N1CCCC1 (stereo unspecified) | inconclusive: 25.1 µM [fluorescent, side channel, partial curve] |  |
| CCCc1cc(=O)[nH]c(SCC(=O)c2c[nH]c3ccccc23)n1 | inconclusive: 31.6 µM [fluorescent, side channel, partial curve] |  |
| C=CCN1C=C2C(=O)C(C)(OC(=O)CCC(=O)OC)C(=O)C(Br)=C2C=C1c1ccc(OC)cc1 (stereo unspecified) | inconclusive: 89.1 µM [inhibitor, single point] |  |
| O=C(c1cc2ccccc2oc1=O)N(Cc1cccs1)C1CCS(=O)(=O)C1 (stereo unspecified) |  | inactive: -1.86% |
| CC(CCc1ccccc1)NC(=O)CN1CCN(c2ccccc2)CC1 (stereo unspecified) | inconclusive: 1.41 µM [fluorescent, side channel, partial curve, poor fit] |  |

| Compound | Potency | activity change, negative = inhibition |
| --- | --- | --- |
| CC1CCN(Cc2c(C(=O)N/N=C/c3cc(Br)ccc3O)nnn2-c2nonc2N)CC1 | inconclusive: 8.91 µM [quencher, side channel, full curve] |  |
| CCOc1ccc2nc(/N=C/c3c(C)[nH]n(-c4ccccc4)c3=O)sc2c1 | inconclusive: 31.6 µM [inhibitor, single point] |  |
| CCCn1nnc(NC(=O)c2ccc(OC)cc2)n1 | inconclusive: 15.8 µM [fluorescent, side channel, single point] |  |
| CCOC(=O)c1c(-c2ccccc2)csc1NC(=O)CSc1nnnn1C |  | inactive: -4.8% |
| CC[C@@H](C)[C@H](NC(=O)Cc1c(C)c2c(cc(C)c3c(C)coc32)oc1=O)C(=O)O | inconclusive: 14.1 µM [fluorescent, side channel, single point] |  |
| CCCCCCn1c(COc2ccccc2F)nnc1SCC(=O)c1c(N)n(C)c(=O)n(C)c1=O | inconclusive: 12.6 µM [fluorescent, side channel, full curve, poor fit] |  |
| O=c1[nH]c(/C=C/c2ccc([N+](=O)[O-])cc2)c([N+](=O)[O-])c(=O)[nH]1 | inconclusive: 14.1 µM [fluorescent, side channel, full curve, poor fit] |  |
| COCCNC(=O)c1c[nH]c2ccc(S(=O)(=O)N3CCC4(CC3)OCCO4)cc2c1=O |  | inactive: 1.72% |
| COc1ccc(/C=C2\SC(=S)N(CCC(=O)NC3=NCCS3)C2=O)cc1OC |  | inactive: 12.2% |
| Cc1ncc([N+](=O)[O-])n1CC(=O)Nc1cc(Cl)ccc1Cl | inconclusive: 14.1 µM [fluorescent, side channel, single point] |  |
| Cc1c(CCC(=O)N[C@@H](CC(C)C)C(=O)O)c(=O)oc2c(C)c3oc4c(c3cc12)CCCC4 |  | inconclusive: -5.79% [phenotype inactive] |
| Cc1ccc(CN=Cc2[nH]c3ccc(Br)c(Cl)c3c2O)cc1 |  | inactive: 7.03% |
| COC(=O)c1cc(NC(=S)NCc2ccc(Cl)cc2)cc(C(=O)OC)c1 |  | inactive: 4.56% |
| CCCCC1(CC(=O)OC)C(=O)N(c2ccccc2)N(c2ccccc2)C1=O |  | inactive: -3.22% |
| CCN(C(=O)COC(=O)c1ccc(Cl)c(N)c1)C1CCS(=O)(=O)C1 (stereo unspecified) | inconclusive: 7.94 µM [fluorescent, side channel, full curve] |  |
| CC(O)c1n(C)c(Cl)c[n+]1C (stereo unspecified) |  | inactive: 14.7% |
| CCCCn1cnc2c(oc3ccccc32)c1=O |  | inconclusive: 10.2% [phenotype inactive] |
| Cc1nn(CCCC(=O)NCc2ccco2)c(=O)c2nn(-c3ccccc3)c(C)c12 | inconclusive: 1.41 µM [fluorescent, side channel, partial curve, poor fit] |  |
| COc1ccc(-c2ccc(OC)c([C@H]3[C@H]4C=CC[C@@H](C)[C@@H]4C(=O)N3Cc3ccccc3)c2)cc1OC | inconclusive: 10 µM [quencher, side channel, full curve, poor fit] |  |
| Cc1ccc(S(=O)(=O)N[C@H](C(=O)NCC2CCC(C(=O)O)CC2)C(C)C)cc1 (stereo partly specified) | inconclusive: 31.6 µM [inhibitor, single point] |  |
| C=CCN(CC=C)S(=O)(=O)c1ccc(NC(=S)NC(=O)C2CC2)cc1 | inconclusive: 7.08 µM [activator, full curve, poor fit] |  |

By substructure, the entries above containing a halogen

| Compound | Potency | activity change, negative = inhibition |
| --- | --- | --- |
| Cc1ccc(N2NC(=O)/C(=C/c3ccc(-c4ccc(Cl)c(C(=O)O)c4)o3)C2=O)cc1C | inconclusive: 63.1 µM [inhibitor, single point] |  |
| Fc1ccccc1-c1nc(NCCCN2CCOCC2)c2ccccc2n1 |  | inactive: -7.23% |
| CC1(c2cccc(Br)c2)NC(=O)N(CC(=O)Nc2cccnc2Cl)C1=O (stereo unspecified) | inconclusive: 14.1 µM [fluorescent, side channel, single point] |  |
| COc1cc2cc(CN(CCO)S(=O)(=O)c3ccccc3Cl)c(=O)[nH]c2cc1OC |  | inactive: -0.128% |
| C=CCN1C=C2C(=O)C(C)(OC(=O)CCC(=O)OC)C(=O)C(Br)=C2C=C1c1ccc(OC)cc1 (stereo unspecified) | inconclusive: 89.1 µM [inhibitor, single point] |  |
| CC1CCN(Cc2c(C(=O)N/N=C/c3cc(Br)ccc3O)nnn2-c2nonc2N)CC1 | inconclusive: 8.91 µM [quencher, side channel, full curve] |  |
| CCCCCCn1c(COc2ccccc2F)nnc1SCC(=O)c1c(N)n(C)c(=O)n(C)c1=O | inconclusive: 12.6 µM [fluorescent, side channel, full curve, poor fit] |  |
| Cc1ncc([N+](=O)[O-])n1CC(=O)Nc1cc(Cl)ccc1Cl | inconclusive: 14.1 µM [fluorescent, side channel, single point] |  |
| Cc1ccc(CN=Cc2[nH]c3ccc(Br)c(Cl)c3c2O)cc1 |  | inactive: 7.03% |
| COC(=O)c1cc(NC(=S)NCc2ccc(Cl)cc2)cc(C(=O)OC)c1 |  | inactive: 4.56% |
| CCN(C(=O)COC(=O)c1ccc(Cl)c(N)c1)C1CCS(=O)(=O)C1 (stereo unspecified) | inconclusive: 7.94 µM [fluorescent, side channel, full curve] |  |
| CC(O)c1n(C)c(Cl)c[n+]1C (stereo unspecified) |  | inactive: 14.7% |

Later entries.

| Compound | Potency | activity change, negative = inhibition |
| --- | --- | --- |
| O=C(NCc1ccc2c(c1)OCO2)c1ccc2c(c1)OCO2 |  | inactive: 3.57% |
| CN(C)c1ccc(N/C=C/C(=O)C(C)(C)C)cc1 |  | inactive: 0.972% |
| O=C(c1ccc(=O)[nH]c1)N1CCCc2ccccc21 | inconclusive: 31.6 µM [fluorescent, side channel, partial curve] |  |
| O=[N+]([O-])c1cc([N+](=O)[O-])c2cccnc2c1O | inconclusive: 63.1 µM [fluorescent, side channel, single point] |  |
| CN(C)CCCNC(=O)/C(=C\C=C\c1ccccc1)NC(=O)c1ccc([N+](=O)[O-])cc1 |  | inactive: -5.75% |
| CCOC(=O)C1CCN(C(=O)C2CCN(S(=O)(=O)c3ccc4ccccc4c3)CC2)CC1 | inconclusive: 89.1 µM [quencher, side channel, single point] |  |
| COc1cccc(CN2CCc3[nH]c(=S)[nH]c(=O)c3C2)c1 | inconclusive: 56.2 µM [fluorescent, side channel, single point] |  |
| CCN(CC)C(=S)SCC(=O)c1c(C)[nH]c2ccccc12 | inconclusive: 89.1 µM [fluorescent, side channel, single point] |  |
| CCOc1ccccc1NC(=O)C(CC)Sc1nc2ccsc2c(=O)n1CCC(=O)O (stereo unspecified) | inconclusive: 1.12 µM [fluorescent, side channel, full curve, poor fit] |  |
| CCOc1ccc(C(N)=O)cc1OC |  | inactive: -2.84% |
| CC(C)n1cc(/C=N/Nc2ccc(C(=O)O)cc2)c2ccccc21 | inconclusive: 15.8 µM [inhibitor, single point] |  |
| COc1cccc(/C=C2/C(=O)NN(c3ccc(Br)cc3)C2=O)c1O | inconclusive: 22.4 µM [inhibitor, partial curve] |  |
| CCC(=O)c1c[nH]c(C(=O)N2CCOCC2)c1 | inconclusive: 8.91 µM [quencher, side channel, single point] |  |
| Cc1ccc(/C=c2/sc3nnc(-c4ccccc4Cl)n3c2=O)o1 |  | inactive: 9.43% |
| O=C(NNC1=NC2(CCCC2)Cc2ccccc21)c1ccncc1 | inconclusive: 11.2 µM [fluorescent, side channel, full curve, poor fit] |  |
| COc1cc(/C=N/Nc2nncc3ccccc23)cc(OC)c1OC | inconclusive: 63.1 µM [fluorescent, side channel, single point] |  |
| COc1ccc(/C=C2\SC(=S)N(CC(=O)NNC(=O)c3ccncc3)C2=O)cc1 | inconclusive: 89.1 µM [fluorescent, side channel, single point] |  |
| C=CCn1c(=O)[nH]c2cc(C(=O)N3CCN(c4cccc(Cl)c4)CC3)ccc2c1=O |  | inactive: -3.32% |
| CCCCCCCCCCCCCCCC[N+](C)(C)Cc1ccccc1 | inconclusive: 35.5 µM [quencher, side channel, partial curve] |  |

A second format for part of the listing above:
Compound | Potency | activity change, negative = inhibition
COc1cccc(CN2CCc3[nH]c(=S)[nH]c(=O)c3C2)c1 | inconclusive: 56.2 µM [fluorescent, side channel, single point] | 
CCN(CC)C(=S)SCC(=O)c1c(C)[nH]c2ccccc12 | inconclusive: 89.1 µM [fluorescent, side channel, single point] | 
